Experimental data taken from article PMC3369903.

Chains of the proteins cited; added tags and fusions are not shown. Lines headed by an entry give the natural chain unless they say otherwise; changes in a name come on top. Residues count along the entry.
UniProt P27512, residues 20-289: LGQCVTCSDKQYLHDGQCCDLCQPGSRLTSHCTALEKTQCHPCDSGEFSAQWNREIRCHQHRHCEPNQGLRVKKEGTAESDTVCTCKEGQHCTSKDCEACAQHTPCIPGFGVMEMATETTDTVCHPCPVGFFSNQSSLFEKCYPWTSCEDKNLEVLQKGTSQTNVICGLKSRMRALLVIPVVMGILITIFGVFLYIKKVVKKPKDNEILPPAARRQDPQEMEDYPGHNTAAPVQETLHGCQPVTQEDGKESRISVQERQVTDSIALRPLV
UniProt Q60932: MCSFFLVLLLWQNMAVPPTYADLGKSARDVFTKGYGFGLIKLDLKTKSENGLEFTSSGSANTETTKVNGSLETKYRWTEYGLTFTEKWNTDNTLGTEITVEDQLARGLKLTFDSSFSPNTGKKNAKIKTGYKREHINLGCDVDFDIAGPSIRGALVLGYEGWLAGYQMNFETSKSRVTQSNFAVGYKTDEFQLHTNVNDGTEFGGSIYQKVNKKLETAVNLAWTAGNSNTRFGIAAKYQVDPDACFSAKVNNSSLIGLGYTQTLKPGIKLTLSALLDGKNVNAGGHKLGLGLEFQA

Molecular target: CD40 (mouse (endogenous in NOD and BALB/c splenic CD4loCD40+ T cells)) (UniProt P27512)
Experiment: affinity purification with mass spectrometry; CD40 immunoprecipitated (FGK45-conjugated magnetic beads) from NOD CD4loCD40+ T cell whole cell extracts; proteins separated by SDS-PAGE, bands identified by LC-LC-MS

Q: Which binding does the source give for “VDAC1 (Voltage-Dependent Anion-selective Channel protein) (from UniProt Q60932)” here?
A: binds

No constants are given. Whether binding was seen depends on the method and setting. In cells and extracts the contact can be indirect. These calls come from enrichment with a bait or labelling near it, and not all partners need be listed.
